Measurements reported in PubChem BioAssay AID1918956 (Molecular Pharmacology Branch, DTP, NCI, 2023).
“And” between values parts separate entries of the source, which are not always exact repeats. Equal values may be shown once. This continues a long series; more values of the same kind are listed elsewhere.

Test system: OVCAR-5 complex spheroids, viability
Assay: Anticancer human tumor OVCAR-5 cell line growth inhibition;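 also: spheroids exposed to agents for seven days; 100% = DMSO vehicle control wells viability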
Settings: hits give low values
Excerpt: Multicellular complex tumor spheroid response to LSD1 Inhibitor Iadademstat in combination with a variety of drugs and investigational agents in selected tumor cell lines
The current study was undertaken to assess response to LSD1 inhibitors in combination with standard-of-care drugs and investigational agents in solid tumor complex spheroid models as well as in the K-562 leukemia. Complex spheroids include a stromal component modeled by human endothelial cells (HUVEC) and fibroblasts modeled by human mesenchymal stem cells (MSCs). The concentration ranges selected for each drug and investigational agent were based upon clinically achievable concentrations if the clinical Cmax of the agent was known.
Compounds. The drugs and investigational agents used in this study are listed on Table 1. All of the agents used, including staurosporine (NSC755774) and gemcitabine (NSC613327), were obtained from the Developmental Therapeutics Program, NCI. FDA-approved anticancer drugs are available from the NCI at http://dtp.nci.nih.gov/branches/dscb/oncology_drugset_explanation.html. Drugs and investigational agents were >95% pure by proton nuclear magnetic resonance (NMR) and liquid chromatography/mass spectrometry (LC/MS). […] If the clinical Cmax for an agent had not been determined, the highest concentration tested was 10 microM. […]

NC1CCC(NC2CC2c2ccccc2)CC1 (configuration not stated)
viability, T/C (compound 0.316 µM): 102% [middle of 23 runs] | viability, T/C (compound 10 µM): 92.5% and 79.5%
